Experimental data published in paper PMC13438671.

Biological target: PfGCN5 Del3 second copy, C-terminally FLAG-tagged (Del3 rescue line) (P. falciparum)
Assay: affinity purification with mass spectrometry; anti-FLAG magnetic beads on lysates of the WT and deletion rescue lines in the absence of rapamycin; LC-MS/MS

B1: adaptor protein 14-3-3I (PF3D7_0818200) (protein, UniProt C0H4V6 1-262)
chain: MATSEELKQLRCDCTYRSKLAEQAERYDEMADAMRTLVEQCVNNDKDELTVEERNLLSVAYKNAVGARRASWRIISSVEQKEMSKANVHNKNVAATYRKKVEEELNNICQDILNLLTKKLIPNTSESESKVFYYKMKGDYYRYISEFSCDEGKKEASNCAQEAYQKATDIAENELPSTHPIRLGLALNYSVFFYEILNQPHQACEMAKRAFDDAITEFDNVSEDSYKDSTLIMQLLRDNLTLWTSDLQGDQTEEKSKDEGLE
  binding: binds

Results are given in words; binding and its absence hold for the method and conditions named. In cells and extracts the contact can be indirect. These calls come from enrichment with a bait or labelling near it, and not all partners need be listed.
